Substitutions are numbered along the chain they refer to. No constants are given. Whether binding was seen depends on the method and setting. In cells and extracts the contact can be indirect. Some results given as binding are weak or reduced against the parent protein; the word gives no strength. For some of these results: Where a sequence is shown, tags or fusion partners need not be part of it.
T1: Auxilin, endogenous, brain of WT mice (mouse (endogenous in brain)) (UniProt Q80TZ3)
T1 sequence: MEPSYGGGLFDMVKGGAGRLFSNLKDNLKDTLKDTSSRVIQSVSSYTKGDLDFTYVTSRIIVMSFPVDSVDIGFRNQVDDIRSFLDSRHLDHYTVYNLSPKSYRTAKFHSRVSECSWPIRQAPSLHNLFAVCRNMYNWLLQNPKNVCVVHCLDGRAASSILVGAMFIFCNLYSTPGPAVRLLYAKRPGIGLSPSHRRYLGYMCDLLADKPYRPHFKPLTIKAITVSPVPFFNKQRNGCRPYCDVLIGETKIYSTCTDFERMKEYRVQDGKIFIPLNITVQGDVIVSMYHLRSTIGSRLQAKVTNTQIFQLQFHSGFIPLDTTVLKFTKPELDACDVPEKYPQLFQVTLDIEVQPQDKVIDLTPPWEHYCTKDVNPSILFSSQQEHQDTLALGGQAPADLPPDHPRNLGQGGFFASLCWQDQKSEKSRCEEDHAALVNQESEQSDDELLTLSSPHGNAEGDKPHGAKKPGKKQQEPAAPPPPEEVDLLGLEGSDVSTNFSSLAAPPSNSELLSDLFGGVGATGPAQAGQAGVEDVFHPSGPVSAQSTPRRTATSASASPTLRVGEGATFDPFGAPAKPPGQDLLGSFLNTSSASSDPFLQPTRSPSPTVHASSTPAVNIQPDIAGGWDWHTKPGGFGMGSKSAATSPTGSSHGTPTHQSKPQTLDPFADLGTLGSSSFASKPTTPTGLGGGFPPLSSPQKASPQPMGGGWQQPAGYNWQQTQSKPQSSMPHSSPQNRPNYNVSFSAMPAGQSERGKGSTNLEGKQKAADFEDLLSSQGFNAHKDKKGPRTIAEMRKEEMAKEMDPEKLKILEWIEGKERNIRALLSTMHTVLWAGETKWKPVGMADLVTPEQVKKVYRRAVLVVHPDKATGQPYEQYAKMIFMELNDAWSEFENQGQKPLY

T2: R857G Auxilin, endogenous, brain of homozygous R857G knockin mice (mouse (endogenous in brain)) (UniProt Q80TZ3)
T2 sequence: T1 sequence with R857G

T3: GFP-GAK (UniProt O14976)
T3 sequence: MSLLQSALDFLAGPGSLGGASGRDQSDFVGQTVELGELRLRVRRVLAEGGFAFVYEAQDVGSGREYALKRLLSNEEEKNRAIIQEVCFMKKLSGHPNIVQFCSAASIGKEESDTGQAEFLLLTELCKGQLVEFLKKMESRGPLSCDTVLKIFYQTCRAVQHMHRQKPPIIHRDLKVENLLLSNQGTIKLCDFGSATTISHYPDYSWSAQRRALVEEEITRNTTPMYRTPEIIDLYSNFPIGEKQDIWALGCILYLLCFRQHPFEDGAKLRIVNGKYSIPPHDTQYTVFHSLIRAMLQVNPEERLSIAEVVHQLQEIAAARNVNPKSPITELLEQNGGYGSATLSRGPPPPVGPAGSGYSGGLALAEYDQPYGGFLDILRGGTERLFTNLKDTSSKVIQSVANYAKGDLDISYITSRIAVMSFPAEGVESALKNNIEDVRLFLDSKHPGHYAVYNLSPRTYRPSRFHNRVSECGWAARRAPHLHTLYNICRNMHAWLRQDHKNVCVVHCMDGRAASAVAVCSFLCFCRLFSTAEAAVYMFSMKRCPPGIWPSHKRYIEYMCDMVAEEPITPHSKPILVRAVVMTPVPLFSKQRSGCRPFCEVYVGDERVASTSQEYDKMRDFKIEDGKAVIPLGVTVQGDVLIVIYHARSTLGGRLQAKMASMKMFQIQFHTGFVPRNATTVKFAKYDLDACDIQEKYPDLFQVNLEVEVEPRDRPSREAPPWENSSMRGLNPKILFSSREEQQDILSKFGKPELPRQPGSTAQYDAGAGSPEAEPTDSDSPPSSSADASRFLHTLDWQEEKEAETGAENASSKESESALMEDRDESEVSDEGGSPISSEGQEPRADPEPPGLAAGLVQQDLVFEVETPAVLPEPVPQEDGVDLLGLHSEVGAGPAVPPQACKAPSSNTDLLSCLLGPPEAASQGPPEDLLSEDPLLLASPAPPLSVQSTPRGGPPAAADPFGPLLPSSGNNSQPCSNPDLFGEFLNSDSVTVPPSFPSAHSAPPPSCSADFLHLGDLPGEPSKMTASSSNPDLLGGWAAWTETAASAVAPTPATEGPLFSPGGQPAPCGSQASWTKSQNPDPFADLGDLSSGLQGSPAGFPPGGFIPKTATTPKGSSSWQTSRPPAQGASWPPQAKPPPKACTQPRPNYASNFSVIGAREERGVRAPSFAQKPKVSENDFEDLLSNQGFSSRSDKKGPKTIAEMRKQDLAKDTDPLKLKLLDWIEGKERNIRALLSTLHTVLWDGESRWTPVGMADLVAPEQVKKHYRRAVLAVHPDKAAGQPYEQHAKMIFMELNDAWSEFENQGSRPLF

T4: GFP-Auxilin (wild type, human) (human) (UniProt O75061)
T4 sequence: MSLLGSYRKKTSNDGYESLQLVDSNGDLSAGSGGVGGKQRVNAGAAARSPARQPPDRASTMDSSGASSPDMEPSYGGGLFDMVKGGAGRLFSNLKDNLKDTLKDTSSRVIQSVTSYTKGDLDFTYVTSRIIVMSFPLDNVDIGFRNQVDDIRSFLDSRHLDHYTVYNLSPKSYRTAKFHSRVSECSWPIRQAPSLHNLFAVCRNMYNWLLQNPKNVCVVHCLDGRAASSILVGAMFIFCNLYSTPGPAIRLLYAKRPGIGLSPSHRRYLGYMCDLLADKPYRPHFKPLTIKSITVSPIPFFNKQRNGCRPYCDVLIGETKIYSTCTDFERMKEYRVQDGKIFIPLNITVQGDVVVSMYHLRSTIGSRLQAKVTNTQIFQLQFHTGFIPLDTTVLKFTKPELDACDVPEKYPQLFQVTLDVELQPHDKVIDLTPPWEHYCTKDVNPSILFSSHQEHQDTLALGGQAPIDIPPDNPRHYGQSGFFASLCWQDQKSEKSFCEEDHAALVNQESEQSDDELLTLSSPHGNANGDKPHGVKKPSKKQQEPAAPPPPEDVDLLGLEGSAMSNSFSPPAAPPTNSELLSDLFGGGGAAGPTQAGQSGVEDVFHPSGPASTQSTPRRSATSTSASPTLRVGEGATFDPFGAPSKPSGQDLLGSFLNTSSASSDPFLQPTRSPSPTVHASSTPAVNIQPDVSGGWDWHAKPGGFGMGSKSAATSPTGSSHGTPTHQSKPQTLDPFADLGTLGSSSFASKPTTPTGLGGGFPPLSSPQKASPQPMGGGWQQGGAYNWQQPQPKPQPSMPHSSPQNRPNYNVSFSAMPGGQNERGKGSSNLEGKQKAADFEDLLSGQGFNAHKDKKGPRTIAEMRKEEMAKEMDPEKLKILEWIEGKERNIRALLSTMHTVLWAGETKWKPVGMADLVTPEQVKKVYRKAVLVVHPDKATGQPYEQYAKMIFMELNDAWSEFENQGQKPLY

B1: AP180, endogenous in mouse brain (protein, UniProt Q61548 1-901)
chain: MSGQTLTDRIAAAQYSVTGSAVARAVCKATTHEVMGPKKKHLDYLIQATNETNVNIPQMADTLFERATNSSWVVVFKALVTTHHLMVHGNERFIQYLASRNTLFNLSNFLDKSGSHGYDMSTFIRRYSRYLNEKAFSYRQMAFDFARVKKGADGVMRTMVPEKLLKSMPILQGQIDALLEFDVHPNELTNGVINAAFMLLFKDLIKLFACYNDGVINLLEKFFEMKKGQCKDALEIYKRFLTRMTRVSEFLKVAEQVGIDKGDIPDLTQAPSSLMETLEQHLNTLEGKKPGNNEGSGAPSPLSKSSPATTVTSPNSTPAKTIDTSPPVDIFATASAAAPVSSAKPSSDLLDLQPDFSGAAAGAAAPVVPPSGGATAWGDLLGEDSLAALSSVPCEAPISDPFAPEPSPPTTTTEPASASASTTTAVTAVTTEVDLFGDAFAASPGEAPAASEGATAPATPAPVAAALDACSGNDPFAPSEGSAEAAPELDLFAMKPPETSAPVVTPTASTAPPVPATAPSPAPTAVAATAATTTAAAAATTTATTSAAAATTAAAPPALDIFGDLFDSAPEVAAAPKPDAAPSIDLFGTDAFSSPPRGASPVPESSLTADLLSVDAFAAPSPASTASPAKAESSGVIDLFGDAFGSGASETQPAPQAVSSSSASADLLAGFGGSFMAPSTTPVTPAQNNLLQPSFEAAFGTTPSTSSSSSFDPSVFDGLGDLLMPTMAPSGQPAPVSMVPPSPAMAASKGLGSDLDSSLASLVGNLGISGTTSKKGDLQWNAGEKKLTGGANWQPKVTPATWSAGVPPQGTVPPTSSVPPGAGAPSVGQPGAGFGMPPSGTGMTMMSQQPVMFAQPMMRPPFGAAAVPGTQLSPSPTPATQSPKKPPAKDPLADLNIKDFL
B2: GGA1, endogenous in HEK293FT (protein, UniProt Q9UJY5 1-639)
chain: MEPAMEPETLEARINRATNPLNKELDWASINGFCEQLNEDFEGPPLATRLLAHKIQSPQEWEAIQALTVLETCMKSCGKRFHDEVGKFRFLNELIKVVSPKYLGSRTSEKVKNKILELLYSWTVGLPEEVKIAEAYQMLKKQGIVKSDPKLPDDTTFPLPPPRPKNVIFEDEEKSKMLARLLKSSHPEDLRAANKLIKEMVQEDQKRMEKISKRVNAIEEVNNNVKLLTEMVMSHSQGGAAAGSSEDLMKELYQRCERMRPTLFRLASDTEDNDEALAEILQANDNLTQVINLYKQLVRGEEVNGDATAGSIPGSTSALLDLSGLDLPPAGTTYPAMPTRPGEQASPEQPSASVSLLDDELMSLGLSDPTPPSGPSLDGTGWNSFQSSDATEPPAPALAQAPSMESRPPAQTSLPASSGLDDLDLLGKTLLQQSLPPESQQVRWEKQQPTPRLTLRDLQNKSSSCSSPSSSATSLLHTVSPEPPRPPQQPVPTELSLASITVPLESIKPSNILPVTVYDQHGFRILFHFARDPLPGRSDVLVVVVSMLSTAPQPIRNIVFQSAVPKVMKVKLQPPSGTELPAFNPIVHPSAITQVLLLANPQKEKVRLRYKLTFTMGDQTYNEMGDVDQFPPPETWGSL

Key:
Assay in all cases: co-IP
[1] = target: T1, Auxilin, endogenous, brain of WT mice (mouse (endogenous in brain))
[2] = target: T2, R857G Auxilin, endogenous, brain of homozygous R857G knockin mice (mouse (endogenous in brain))
GFP-GAK = target: T3, GFP-GAK
[3] = target: T4, GFP-Auxilin (wild type, human) (human)

Binder | binding [1] | binding [2] | binding (GFP-GAK) | binding [3]
B1 | binds | binds | – | –
B2 | – | – | no binding | no binding

Reference: doi:10.1101/830802
